Test system: coenzyme Q9
Experiment: Coenzyme Q9 oxidation ratio in blood after forced oral administration
Assay type: in vivo, rat
Details: rats; for Average value of CoQ9 oxidation ratio: oxidized coenzyme Q9 based on total coenzyme Q9
Procedure: Seven-week-old male Slc:SD rats were preliminarily fed for 7 days, and forced oral administration (repeated oral administration) was performed for 4 rats with phosphatidylinositol at 100 mg/kg/day for 1 week. Then, forced oral administration was performed with phosphatidylinositol at 100 mg/kg/day and oxidized coenzyme Q10 at 100 mg/kg/day at the same time (PI-administered group). 0, 2, 4, and 6 hours after the forced oral administration with both phosphatidylinositol and coenzyme Q10, the whole blood was collected from the postcaval vein using heparinized injection needles and syringes under diethyl ether anesthesia. Collected blood was immediately centrifuged (4° C., 3,000 rpm, 10 minutes) to separate plasma. The separated plasma samples were used for an analysis of coenzyme Q10 by HPLC. As comparative examples, the above-mentioned procedures were performed for the group which was subjected to forced oral administration (repeated oral administration) with soybean lecithin at 500 mg/kg/day (100 mg/kg/day in terms of phosphatidylinositol) instead of phosphatidylinositol for 1 week and then to forced oral administration with both phosphatidylinositol at 100 mg/kg/day and oxidized coenzyme Q10 at 100 mg/kg/day at the same time (soybean lecithin-administered group), and the group which was subjected to forced oral administration with both phosphatidylinositol at 100 mg/kg/day and oxidized coenzyme Q10 at 100 mg/kg/day simultaneously without preliminary administration of phosphatidylinositol (PI non-administration group).

phosphatidylinositol
Average value of CoQ9 oxidation ratio (0 hr): 24 nM
Average value of CoQ9 oxidation ratio (2 hr): 14 nM
Average value of CoQ9 oxidation ratio (4 hr): 13 nM
Average value of CoQ9 oxidation ratio (6 hr): 7.4 nM
coenzyme Q9 oxidation ratios compared with the PI non-administration group (1 week pre-administration): tendency to be lower

From patent US20100061969A1, “DIETARY SUPPLEMENT, ANTI-FATIGUE AGENT OR PHYSICAL ENDURANCE ENHANCER, FUNCTIONAL FOOD, OR COSMETIC” (ASAHI KASEI PHARMA CORPORATION, priority 2006, published 2010)
